The list shows a part of the results.
What was measured:
Assay in all cases: log2 fold change, soluble protein after heating vs DMSO (PISA); higher = thermal stabilisation; K562 lysate, 10 uM; active = over 0.2 and 3.5 SD of the protein, either way, in both replicates (recomputed)
[1] = compound: NCC(=O)Nc1ccc(-n2nc(C(F)(F)F)cc2-c2ccc3c(ccc4ccccc43)c2)cc1
How it was run: (§1)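 Quantification was by TMTpro 16plex LC-MS/MS with equalised channel sums, applied to the supernatant after 21,000xg for 90 min. Samples were crude K562 extract at 1 mg/mL protein in PBS pH 7.4 with 1 mM MgCl2, treated with 10 μM compound for 30 min, heated for 3 min across 48°C-58°C, pooled and brought to 0.5% NP-40 at 4°C. Values are log-two fold changes in thermal stability relative to solvent controls, from duplicates.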

The chains behind the UniProt entries cited, without tags or fusion partners. Where a name states a change or a piece, a line headed by the entry shows the natural chain unless it says otherwise.
UniProt Q9NXA8: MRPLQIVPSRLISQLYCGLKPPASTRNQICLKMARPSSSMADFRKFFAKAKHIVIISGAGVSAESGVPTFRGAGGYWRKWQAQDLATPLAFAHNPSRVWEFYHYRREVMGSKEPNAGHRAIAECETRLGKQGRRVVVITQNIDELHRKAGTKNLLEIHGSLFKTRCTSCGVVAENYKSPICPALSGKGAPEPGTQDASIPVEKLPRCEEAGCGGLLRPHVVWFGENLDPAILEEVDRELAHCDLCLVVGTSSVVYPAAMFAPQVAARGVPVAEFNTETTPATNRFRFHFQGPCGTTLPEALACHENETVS
UniProt Q14493, whole entry, looked up: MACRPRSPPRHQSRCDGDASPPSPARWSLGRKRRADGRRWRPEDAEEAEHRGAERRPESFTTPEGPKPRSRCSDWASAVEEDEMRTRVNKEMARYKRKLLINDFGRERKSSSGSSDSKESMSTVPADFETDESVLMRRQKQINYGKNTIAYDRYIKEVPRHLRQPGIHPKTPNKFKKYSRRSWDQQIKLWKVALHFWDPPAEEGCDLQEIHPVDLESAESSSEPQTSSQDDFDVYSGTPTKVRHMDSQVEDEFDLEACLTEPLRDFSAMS
UniProt Q0GE19: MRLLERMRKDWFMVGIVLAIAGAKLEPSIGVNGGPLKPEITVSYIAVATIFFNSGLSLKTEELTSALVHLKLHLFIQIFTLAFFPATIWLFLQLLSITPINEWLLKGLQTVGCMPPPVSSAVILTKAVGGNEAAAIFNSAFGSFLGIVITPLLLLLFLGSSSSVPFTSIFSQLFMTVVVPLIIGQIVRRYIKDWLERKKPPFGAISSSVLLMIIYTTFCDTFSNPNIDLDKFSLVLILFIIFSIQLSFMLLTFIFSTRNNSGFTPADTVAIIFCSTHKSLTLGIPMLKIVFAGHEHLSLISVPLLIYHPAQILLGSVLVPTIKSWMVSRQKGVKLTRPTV
UniProt Q9H0F6: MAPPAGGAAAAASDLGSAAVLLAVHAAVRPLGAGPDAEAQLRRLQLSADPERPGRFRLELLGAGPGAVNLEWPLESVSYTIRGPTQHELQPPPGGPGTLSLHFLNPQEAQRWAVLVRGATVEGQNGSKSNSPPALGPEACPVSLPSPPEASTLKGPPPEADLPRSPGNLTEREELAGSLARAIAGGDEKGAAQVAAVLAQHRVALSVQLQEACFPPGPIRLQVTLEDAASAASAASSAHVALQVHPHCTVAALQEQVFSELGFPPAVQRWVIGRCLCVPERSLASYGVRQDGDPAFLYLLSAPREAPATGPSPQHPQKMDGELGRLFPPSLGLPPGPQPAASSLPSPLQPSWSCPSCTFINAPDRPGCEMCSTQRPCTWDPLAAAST
UniProt O75563, whole entry, looked up: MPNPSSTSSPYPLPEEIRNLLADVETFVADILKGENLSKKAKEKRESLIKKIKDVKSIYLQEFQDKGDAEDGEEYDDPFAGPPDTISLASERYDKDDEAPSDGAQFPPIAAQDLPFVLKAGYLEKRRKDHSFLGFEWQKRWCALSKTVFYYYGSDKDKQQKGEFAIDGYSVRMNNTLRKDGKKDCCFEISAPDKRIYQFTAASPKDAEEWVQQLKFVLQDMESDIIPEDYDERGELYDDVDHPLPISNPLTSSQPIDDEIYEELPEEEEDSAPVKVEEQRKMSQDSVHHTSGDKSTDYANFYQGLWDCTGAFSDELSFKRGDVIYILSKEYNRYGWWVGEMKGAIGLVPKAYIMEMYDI
UniProt Q99963: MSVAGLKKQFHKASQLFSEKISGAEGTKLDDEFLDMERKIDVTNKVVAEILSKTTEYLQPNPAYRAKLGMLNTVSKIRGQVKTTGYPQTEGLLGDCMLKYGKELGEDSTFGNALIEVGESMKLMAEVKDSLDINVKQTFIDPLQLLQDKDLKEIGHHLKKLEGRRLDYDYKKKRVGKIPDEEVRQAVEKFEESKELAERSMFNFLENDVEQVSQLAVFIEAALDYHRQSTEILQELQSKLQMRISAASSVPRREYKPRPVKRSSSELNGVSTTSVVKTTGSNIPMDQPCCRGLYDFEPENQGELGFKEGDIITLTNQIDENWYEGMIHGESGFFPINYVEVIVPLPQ
UniProt Q9H9B4: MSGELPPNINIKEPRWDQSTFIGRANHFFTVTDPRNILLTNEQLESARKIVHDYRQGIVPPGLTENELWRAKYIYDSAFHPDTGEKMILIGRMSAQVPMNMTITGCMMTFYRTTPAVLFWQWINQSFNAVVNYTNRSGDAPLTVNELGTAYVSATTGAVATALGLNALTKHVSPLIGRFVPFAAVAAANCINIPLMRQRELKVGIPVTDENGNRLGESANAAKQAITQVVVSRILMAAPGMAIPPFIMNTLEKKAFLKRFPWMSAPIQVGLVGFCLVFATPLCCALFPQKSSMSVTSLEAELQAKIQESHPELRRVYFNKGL
UniProt O95562: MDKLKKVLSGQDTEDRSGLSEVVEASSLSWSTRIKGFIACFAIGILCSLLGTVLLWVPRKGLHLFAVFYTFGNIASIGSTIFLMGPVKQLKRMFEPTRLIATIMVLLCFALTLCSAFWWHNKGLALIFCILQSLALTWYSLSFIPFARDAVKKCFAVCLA
UniProt Q96EB6: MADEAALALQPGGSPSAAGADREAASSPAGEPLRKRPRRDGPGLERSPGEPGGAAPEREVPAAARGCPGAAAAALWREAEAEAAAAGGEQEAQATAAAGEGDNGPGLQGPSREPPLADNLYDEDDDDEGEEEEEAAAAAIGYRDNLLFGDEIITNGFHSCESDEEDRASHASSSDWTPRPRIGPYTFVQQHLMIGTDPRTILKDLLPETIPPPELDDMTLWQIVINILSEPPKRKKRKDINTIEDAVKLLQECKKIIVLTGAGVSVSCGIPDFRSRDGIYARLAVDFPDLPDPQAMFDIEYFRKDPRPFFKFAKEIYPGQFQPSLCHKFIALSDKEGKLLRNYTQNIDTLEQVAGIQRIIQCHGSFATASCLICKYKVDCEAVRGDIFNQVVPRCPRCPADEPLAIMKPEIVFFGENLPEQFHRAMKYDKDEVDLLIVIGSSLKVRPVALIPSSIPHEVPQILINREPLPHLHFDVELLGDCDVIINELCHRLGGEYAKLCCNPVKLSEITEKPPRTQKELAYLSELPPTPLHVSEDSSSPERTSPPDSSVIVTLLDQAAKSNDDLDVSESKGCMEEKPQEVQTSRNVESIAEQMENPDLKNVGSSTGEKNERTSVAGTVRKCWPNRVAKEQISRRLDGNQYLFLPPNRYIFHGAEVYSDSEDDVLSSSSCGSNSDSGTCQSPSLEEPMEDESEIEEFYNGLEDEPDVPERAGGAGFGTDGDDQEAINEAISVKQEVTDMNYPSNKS
UniProt Q15758: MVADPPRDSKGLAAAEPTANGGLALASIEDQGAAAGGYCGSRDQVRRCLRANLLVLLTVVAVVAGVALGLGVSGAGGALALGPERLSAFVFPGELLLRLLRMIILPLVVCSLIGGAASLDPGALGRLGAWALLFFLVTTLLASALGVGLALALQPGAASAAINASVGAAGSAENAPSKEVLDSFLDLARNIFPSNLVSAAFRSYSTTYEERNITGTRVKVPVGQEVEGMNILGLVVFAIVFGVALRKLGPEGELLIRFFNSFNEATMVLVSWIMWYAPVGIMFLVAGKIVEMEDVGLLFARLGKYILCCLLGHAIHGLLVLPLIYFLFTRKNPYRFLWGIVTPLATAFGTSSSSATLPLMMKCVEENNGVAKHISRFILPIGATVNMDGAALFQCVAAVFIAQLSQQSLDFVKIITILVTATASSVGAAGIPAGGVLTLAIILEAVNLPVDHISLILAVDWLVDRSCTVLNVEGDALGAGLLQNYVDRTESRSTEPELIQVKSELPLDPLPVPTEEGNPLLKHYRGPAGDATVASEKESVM
UniProt Q13435: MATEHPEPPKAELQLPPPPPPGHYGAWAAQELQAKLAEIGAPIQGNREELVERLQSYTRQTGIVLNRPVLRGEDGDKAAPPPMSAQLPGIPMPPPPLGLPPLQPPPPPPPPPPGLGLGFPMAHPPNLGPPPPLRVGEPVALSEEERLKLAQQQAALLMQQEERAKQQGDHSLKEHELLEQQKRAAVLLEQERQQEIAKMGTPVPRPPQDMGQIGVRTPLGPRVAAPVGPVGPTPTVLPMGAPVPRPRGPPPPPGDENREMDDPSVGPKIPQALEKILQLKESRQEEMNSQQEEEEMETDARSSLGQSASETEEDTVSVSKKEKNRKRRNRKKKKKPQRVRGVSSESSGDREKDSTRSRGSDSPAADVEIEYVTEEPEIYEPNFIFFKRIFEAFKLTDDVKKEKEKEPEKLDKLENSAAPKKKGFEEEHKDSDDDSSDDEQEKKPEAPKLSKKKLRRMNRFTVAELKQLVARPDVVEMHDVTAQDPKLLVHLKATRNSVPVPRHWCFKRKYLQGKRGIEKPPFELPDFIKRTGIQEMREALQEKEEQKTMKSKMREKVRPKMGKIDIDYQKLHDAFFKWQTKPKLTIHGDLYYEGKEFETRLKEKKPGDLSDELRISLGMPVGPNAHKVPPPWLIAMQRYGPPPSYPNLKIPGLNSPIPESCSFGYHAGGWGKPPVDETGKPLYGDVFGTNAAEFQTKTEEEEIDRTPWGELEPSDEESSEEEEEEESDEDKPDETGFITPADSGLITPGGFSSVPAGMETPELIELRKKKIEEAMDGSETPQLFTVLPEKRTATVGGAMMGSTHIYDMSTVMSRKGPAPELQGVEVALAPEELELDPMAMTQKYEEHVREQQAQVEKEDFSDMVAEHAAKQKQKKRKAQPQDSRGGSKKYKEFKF
UniProt Q99961: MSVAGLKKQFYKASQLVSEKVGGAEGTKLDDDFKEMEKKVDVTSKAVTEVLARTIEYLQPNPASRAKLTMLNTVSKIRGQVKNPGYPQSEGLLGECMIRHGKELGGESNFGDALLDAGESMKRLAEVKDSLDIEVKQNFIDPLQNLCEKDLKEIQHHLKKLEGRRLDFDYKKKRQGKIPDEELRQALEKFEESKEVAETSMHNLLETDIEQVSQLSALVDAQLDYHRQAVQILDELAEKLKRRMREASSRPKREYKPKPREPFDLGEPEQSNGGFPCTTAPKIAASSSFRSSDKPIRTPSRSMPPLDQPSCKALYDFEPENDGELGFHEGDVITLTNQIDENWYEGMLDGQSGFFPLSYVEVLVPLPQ
UniProt Q9NP31, whole entry, looked up: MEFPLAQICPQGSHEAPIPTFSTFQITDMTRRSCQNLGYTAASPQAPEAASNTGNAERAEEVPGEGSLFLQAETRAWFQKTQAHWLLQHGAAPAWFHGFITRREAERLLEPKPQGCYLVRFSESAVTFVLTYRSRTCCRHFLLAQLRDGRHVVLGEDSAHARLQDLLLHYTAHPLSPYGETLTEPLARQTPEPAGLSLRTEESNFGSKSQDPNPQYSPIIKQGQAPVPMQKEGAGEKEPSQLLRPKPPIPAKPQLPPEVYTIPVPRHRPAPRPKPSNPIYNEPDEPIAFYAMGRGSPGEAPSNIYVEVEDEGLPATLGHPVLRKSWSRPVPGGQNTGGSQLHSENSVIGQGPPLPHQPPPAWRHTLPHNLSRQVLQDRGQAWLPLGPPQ
UniProt Q9BX95: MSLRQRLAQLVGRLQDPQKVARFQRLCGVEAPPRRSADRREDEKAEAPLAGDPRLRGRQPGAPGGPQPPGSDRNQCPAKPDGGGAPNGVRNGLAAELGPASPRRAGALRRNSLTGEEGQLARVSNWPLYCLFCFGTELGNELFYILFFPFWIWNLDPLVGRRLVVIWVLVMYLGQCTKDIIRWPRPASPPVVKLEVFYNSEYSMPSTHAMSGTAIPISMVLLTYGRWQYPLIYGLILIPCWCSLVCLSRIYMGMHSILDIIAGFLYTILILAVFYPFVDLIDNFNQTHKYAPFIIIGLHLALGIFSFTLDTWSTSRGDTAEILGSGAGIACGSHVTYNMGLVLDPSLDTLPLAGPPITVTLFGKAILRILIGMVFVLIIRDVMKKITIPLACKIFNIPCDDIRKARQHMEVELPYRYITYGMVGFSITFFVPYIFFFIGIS
UniProt P01008, whole entry, looked up: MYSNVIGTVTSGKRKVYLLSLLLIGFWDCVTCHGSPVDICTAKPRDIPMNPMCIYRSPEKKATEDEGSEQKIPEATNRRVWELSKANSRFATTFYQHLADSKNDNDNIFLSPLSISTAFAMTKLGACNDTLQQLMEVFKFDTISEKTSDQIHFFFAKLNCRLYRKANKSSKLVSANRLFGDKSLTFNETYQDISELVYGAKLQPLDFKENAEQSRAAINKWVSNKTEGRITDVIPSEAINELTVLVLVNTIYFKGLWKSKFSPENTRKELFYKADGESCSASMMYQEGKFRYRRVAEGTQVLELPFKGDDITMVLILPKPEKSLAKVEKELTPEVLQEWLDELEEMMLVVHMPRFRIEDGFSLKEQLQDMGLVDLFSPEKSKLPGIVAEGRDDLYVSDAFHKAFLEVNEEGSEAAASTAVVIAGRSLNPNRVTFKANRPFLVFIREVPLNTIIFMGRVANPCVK

[2] = compound: O=C(CCCCCCC(=O)Nc1ccccc1)NO [vorinostat]
How it was run: as §1

[3] = compound: O=C(O)c1ccc2c(c1)nc(Nc1cccc(Cl)c1)c1ccncc12 [silmitasertib]
How it was run: as §1

[4] = compound: O=C1NC(=O)C(c2cnc3ccccn23)=C1c1cn2c3c(cc(F)cc13)CN(C(=O)N1CCCCC1)CC2
How it was run: as §1

[5] = compound: c1cn2cc(-c3ccc4cn[nH]c4c3)nc(Nc3ccc(N4CCOCC4)cc3)c2n1 [entospletinib]
How it was run: as §1

Measured: log2 fold change

SIRT5 (UniProt Q9NXA8)
inactive: [1] -0.012 | [2] -0.031 | [3] 0.124 | [4] -0.01 | [5] 0.045

SLBP (UniProt Q14493)
inactive: [1] -0.011 | [2] -0.179 | [3] 0.104 | [4] -0.035 | [5] 0.039

SLC10A7 isoform 1 (UniProt Q0GE19)
inactive: [1] 0.026 | [2] -0.098 | [3] 0.015 | [4] 0.013 | [5] -0.047

SHC1 isoform 6 (UniProt P29353)
inactive: [1] 0.029 | [2] 0.025 | [3] -0.017 | [4] -0.055 | [5] -0.058

SHARPIN (UniProt Q9H0F6)
inactive: [1] -0.1 | [2] -0.275 | [3] -0.164 | [4] -0.063 | [5] -0.041

SKAP2 (UniProt O75563)
inactive: [1] 0.041 | [2] -0.024 | [3] -0.043 | [4] 0.01 | [5] -0.068

SGPL1 (UniProt O95470)
inactive: [1] 0.015 | [2] 0.032 | [3] 0.014 | [4] 0.061 | [5] 0.037

SH3GL3 isoform 3 (UniProt Q99963)
inactive: [1] 0.108 | [2] -0.091 | [3] 0.028 | [4] 0.01 | [5] 0.01

SH2B3 (UniProt Q9UQQ2)
inactive: [1] 0.067 | [2] -0.017 | [3] -0.104 | [4] 0.028 | [5] -0.111

SFXN1 (UniProt Q9H9B4)
inactive: [1] -0.034 | [2] 0.128 | [3] -0.001 | [4] 0.006 | [5] 0

Reprinted at random: 2 records from the list.
SFXN1 (UniProt Q9H9B4)
inactive: [1] -0.034 | [2] 0.128 | [3] -0.001 | [4] 0.006 | [5] 0

SKAP2 (UniProt O75563)
inactive: [1] 0.041 | [2] -0.024 | [3] -0.043 | [4] 0.01 | [5] -0.068

Remaining list, next part

SFT2D2 (UniProt O95562)
inactive: [1] 0.011 | [2] 0.055 | [3] 0.026 | [4] -0.193 | [5] 0.049

SERPINH1 (UniProt P50454)
inactive: [1] 0.026 | [2] 0.102 | [3] 0.007 | [4] 0.009 | [5] 0.006

SHPRH (UniProt Q149N8)
inactive: [1] -0.025 | [2] -0.417 | [3] 0.087 | [4] 0.081 | [5] -0.138

SIRT1 (UniProt Q96EB6)
inactive: [1] -0.026 | [2] -0.04 | [3] 0.049 | [4] 0.015 | [5] -0.019

SLC1A5 (UniProt Q15758)
inactive: [1] 0.014 | [2] 0.03 | [3] -0.018 | [4] -0.033 | [5] 0

SGTA (UniProt O43765)
inactive: [1] 0.003 | [2] 0.023 | [3] 0 | [4] 0.009 | [5] 0.007

SESN2 (UniProt P58004)
active: [2] -0.367
inactive: [1] 0.006 | [3] 0.066 | [4] 0.022 | [5] 0.073

SGTB (UniProt Q96EQ0)
inactive: [1] -0.025 | [2] 0.093 | [3] -0.03 | [4] 0.01 | [5] -0.017

SF3B2 (UniProt Q13435)
inactive: [1] 0.003 | [2] 0.028 | [3] -0.042 | [4] 0.011 | [5] -0.036

SH3GL1 (UniProt Q99961)
inactive: [1] -0.012 | [3] 0 | [4] 0.009 | [5] -0.004
active: [2] -0.245

SH2D2A isoform 2 (UniProt Q9NP31)
inactive: [1] 0.063 | [2] 0.043 | [3] 0.06 | [4] 0.101 | [5] -0.195

SGPP1 (UniProt Q9BX95)
inactive: [1] 0.07 | [2] -0.153 | [3] -0.094 | [4] -0.088 | [5] -0.038

SERPINC1 (UniProt P01008)
inactive: [1] -0.112 | [2] 0.082 | [3] -0.04 | [4] 0.093 | [5] -0.024

SETD3 (UniProt Q86TU7)
inactive: [1] 0.006 | [2] 0.012 | [3] -0.009 | [4] -0.025 | [5] 0.001

Reference: the supplement of paper PMC10849652
